Data taken from PubChem BioAssay AID1159506, deposited by NCATS (2015).

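Luminescence from an EWS-FLI1 target-promoter (NR0B1) reporter, set against a CMV-promoter reporter, two days after silencing single genes in TC32 Ewing sarcoma cells.
Each siRNA was applied at 20 nM.
A z-score of the log NR0B1-over-CMV signal, less the median of siRNAs with the same seed; more negative means a stronger specific loss of the NR0B1 reporter.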

This is part of the screen; most of the strongest results are not listed here.
Sequences are the guide (antisense) strand, without overhang.

| # | strand | target gene | seed-corrected z-score |
|---|---|---|---|
| 1 | `UGUUACUUCAUCUCUGUGG` | NBAT1 | 0.3898 |
| 2 | `UAUUCACCGAUCGCAGAGC` | RIMBP2 | 0.6935 |
| 3 | `UUCGAGCUUGUAGAAAUCC` | SFT2D3 | -0.655 |
| 4 | `UUUGAUGCCCUUAACAGCC` | BMS1 | 0.000729 |
| 5 | `UAGCUGUGAAGAGCAUCCC` | SEMA6B | -1.764 |
| 6 | `AAGUCUCAAACAUCUGUUC` | GUCA1A | 0.7419 |
| 7 | `UUUGAGUUAGCAGAUCUCU` | SST | -0.9897 |
| 8 | `UUAGUGUAAAGGGAGUACG` | USP6NL | -0.2159 |
| 9 | `AACGCAAUGAGUGAGACGC` | BAZ2B | -0.4983 |
| 10 | `UUACUGUUGACUCCGGUAG` | ARGFX | 0.3166 |
| 11 | `UCUGAUCCCAGUCUUGUUC` | AMMECR1L | -1.04 |
| 12 | `UCAGUAUUAUGUCUUCUAG` | MAATS1 | -0.224 |
| 13 | `UUUUCGUCCUGGUACAGCU` | GOLM1 | 0.2086 |
| 14 | `UUUCGUUCCACUUGUUCAG` | SUDS3 | 1.323 |
| 15 | `AAUUUGAAAGAGCCCACCU` | SASH3 | -0.06611 |
| 16 | `UUUGGUGAGAAGAUCCAGC` | CENPP | -1.379 |
| 17 | `UUCCAAACAGGGUCUCAGC` | PLEKHG6 | -1.177 |
| 18 | `UAAGCAAUAUCUUAUAUGC` | NUDT10 | 0.1646 |
| 19 | `UAGAGCGUGAGAUAUAGGC` | ZFP62 | -0.72 |
| 20 | `CUGCAAACUUGAUCUUUGU` | CBWD5 | -1.437 |
| 21 | `AUUAGGACCAUAAGAAAUC` | C2orf81 | 1.068 |
| 22 | `UAUGUAAGGUGUGUUCAGG` | RNASE8 | 0.1171 |
| 23 | `UCAGCUUAGUCAGCUUUCC` | SCRIB | 0.3475 |
| 24 | `UCUUAUACCUGUCAAUGUC` | GPD2 | -0.08697 |
| 25 | `UAUCUAGAUAAGGAGUUGC` | PPIL6 | 1.097 |
| 26 | `UUCUUCAGUAUACUCCACC` | TPH2 | 0.9391 |
| 27 | `UACGUUCAGAGAAUAGCUU` | VPS51 | -0.0641 |
| 28 | `AUGGUUUCCAUCUAAGCUG` | HGD | -0.5293 |
| 29 | `UGCUCAACAAACCAUGACC` | HOXB13 | -0.482 |
| 30 | `UUUUACAUUGCGGAUGAUG` | RPS28P7 | 0.7549 |
| 31 | `AAUUUCAUAAGCUCCACCU` | FAM209A | 0.7352 |
| 32 | `UUGGAUAUUUGGAUCACGU` | LEP | 0.5507 |
| 33 | `UUAGAUGCUUCUCUGUUCC` | DDX3Y | -0.3816 |
| 34 | `UCCGUGUCGAAGAUCACCG` | C1QTNF1 | 0.7428 |
| 35 | `ACACCUUUCAAGUUCAAUC` | LINC01091 | 1.651 |
| 36 | `AAAGCUUAGACUGACGGCC` | SLC38A5 | 1.297 |
| 37 | `UUUCCGUUCCUCCAUGUCC` | C22orf23 | 0.2524 |
| 38 | `UAGGUUGAUGGUAUCAUCC` | FNDC8 | 0.4415 |
| 39 | `AUAAAUUCACUGCUGAUCG` | LOC401442 | 0.02198 |
| 40 | `UUGGACUUCUGCUUGAAGG` | ZNF707 | -1.554 |
| 41 | `UGACGUAAGAGGUACAGCC` | CCDC28A | 0.7426 |
| 42 | `UUUGGAACUUGUCCGGUUG` | PHF21A | 0.9228 |
| 43 | `AAUAGAUGGAUUCUCCUCC` | GJC1 | 0.3251 |
| 44 | `UGAAAUGCAAUGUAGAUCC` | MIS12 | 0.4114 |
| 45 | `AUAAAUGUCGGCUUUAGGC` | MOS | 0.5654 |
| 46 | `UUUUGGGCUAGAGGAGCUG` | SRRM4 | -0.6014 |
| 47 | `UCCAUAUACAUAAACAGUG` | RHOT1 | 0.8661 |
| 48 | `UAUCACUCCACCGUAGUUG` | PRIM1 | -0.08556 |
| 49 | `AAAGCUGUUAAACCAAUAC` | GHITM | 0.8154 |
| 50 | `UUUGUUUCAAGCAGGAUGC` | CASS4 | -0.6255 |
| 51 | `UUUGUAUGUGGUCUUGUUC` | AHDC1 | 0.7223 |
| 52 | `AUUGGUGACAACAUGAGGG` | IGSF9 | -0.7615 |
| 53 | `UCUUGUCUAAUUUGGUUUC` | ATP5H | 0.4566 |
| 54 | `UUUCAAUCAAGGCAUCUUC` | ANXA3 | 0.8005 |
| 55 | `UUCUUACUAAGCUUAAAGG` | HIST1H1T | -0.3917 |
| 56 | `UCUCCAUCAAUGCUAGCUC` | TNFAIP8 | -0.3829 |
| 57 | `AAUCCUACAGCCAAGAGCU` | CCR2 | -0.0239 |
| 58 | `UCUGAUAUAACUGGGAUGU` | LYSMD2 | 0.7544 |
| 59 | `UUUGGACAAAACAACAGGC` | OCIAD2 | 1.843 |
| 60 | `UCUAGCAAAAUGCACAUGC` | NCAPD2 | -0.3415 |
| 61 | `UUCCCAUCCUUAUAGGUGC` | CTSZ | -0.4032 |
| 62 | `UUAGAUUGCUUCACUAUGG` | ANGPTL3 | 0.5273 |
| 63 | `UAGAUAAUUUCCGAUGUAC` | BIVM | -0.04071 |
| 64 | `UAGUUUGUAGGCACCAAGG` | C1orf50 | 1.536 |
| 65 | `ACAGUAUUUGCUGAUCUGC` | IPPK | 1.606 |
| 66 | `UGACUUUCAUUCACCACCG` | FKBP14 | -0.0408 |
| 67 | `AUAGCUCUCAAUGCGGAAG` | INPP5J | 0.2517 |
| 68 | `UCAAUGUUUCGCUCGUACC` | F2 | 0.02568 |
| 69 | `UUCCUAAACAGGACGGAGG` | LCN2 | 0.121 |
| 70 | `UGUUCUUACACCUUGAUUC` | EPHA4 | -1.086 |
| 71 | `UUACCGUCAAGUCUGCAAG` | STRN3 | 0.06834 |
| 72 | `AACUAUCUCAGCCUCAUUC` | C7orf49 | 0.2793 |
| 73 | `UUUGGUGACAUGUAAGGGA` | ZMIZ2 | 0.3167 |
| 74 | `AGUUUUAAUAGAGUAGAUG` | HMGB3P19 | 0.8096 |
| 75 | `UCUGAUUAGCCCAUGGUGC` | RPE | 0.6961 |
| 76 | `UUAAUUGGUGAAAUAUUCC` | GON4L | 0.1537 |
| 77 | `AAUCCUACAAAUUCCACAG` | RCHY1 | 0.2228 |
| 78 | `UUGGUGAUCUUCACGGAGC` | NLRP6 | 0.5498 |
| 79 | `UAGGAUACACUCCUGAAGC` | SDC2 | 0.1292 |
| 80 | `UUCUCUCAAUGUUUUAUCC` | UBFD1 | 1.219 |
| 81 | `UCAUCGAAAAAGACAGUGC` | VNN1 | -0.09556 |
| 82 | `UCUUUGUAUGCUACCAAGC` | PMM2 | 1.178 |
| 83 | `UGCCUUAUCUUUCCUGGGC` | PTH1R | -1.472 |
| 84 | `UUCGGUAACUUUCACUCUC` | ENOPH1 | 0.7692 |

The first 7 entries again:

{"strand": "UGUUACUUCAUCUCUGUGG", "target gene": "NBAT1", "seed-corrected z-score": "0.3898"}
{"strand": "UAUUCACCGAUCGCAGAGC", "target gene": "RIMBP2", "seed-corrected z-score": "0.6935"}
{"strand": "UUCGAGCUUGUAGAAAUCC", "target gene": "SFT2D3", "seed-corrected z-score": "-0.655"}
{"strand": "UUUGAUGCCCUUAACAGCC", "target gene": "BMS1", "seed-corrected z-score": "0.000729"}
{"strand": "UAGCUGUGAAGAGCAUCCC", "target gene": "SEMA6B", "seed-corrected z-score": "-1.764"}
{"strand": "AAGUCUCAAACAUCUGUUC", "target gene": "GUCA1A", "seed-corrected z-score": "0.7419"}
{"strand": "UUUGAGUUAGCAGAUCUCU", "target gene": "SST", "seed-corrected z-score": "-0.9897"}